Assay results from article PMC11699347, “Heme regulates protein interactions and phosphorylation of BACH2 intrinsically disordered region in humoral response” (iScience, 2024).
Results are given in words; binding and its absence hold for the method and conditions named. Binding seen in cells or lysates may run through a third protein. A yes stands for co-enrichment or nearness to the bait. Other partners may have been found.

Chains of the proteins cited; added tags and fusions are not shown. Residues count along the entry.
UniProt P97303, residues 331-520: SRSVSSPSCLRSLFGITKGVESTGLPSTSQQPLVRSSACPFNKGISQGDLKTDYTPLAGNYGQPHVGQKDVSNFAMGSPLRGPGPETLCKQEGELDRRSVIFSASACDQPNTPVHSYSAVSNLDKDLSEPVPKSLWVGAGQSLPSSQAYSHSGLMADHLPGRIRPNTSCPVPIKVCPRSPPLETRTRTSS
UniProt O35134: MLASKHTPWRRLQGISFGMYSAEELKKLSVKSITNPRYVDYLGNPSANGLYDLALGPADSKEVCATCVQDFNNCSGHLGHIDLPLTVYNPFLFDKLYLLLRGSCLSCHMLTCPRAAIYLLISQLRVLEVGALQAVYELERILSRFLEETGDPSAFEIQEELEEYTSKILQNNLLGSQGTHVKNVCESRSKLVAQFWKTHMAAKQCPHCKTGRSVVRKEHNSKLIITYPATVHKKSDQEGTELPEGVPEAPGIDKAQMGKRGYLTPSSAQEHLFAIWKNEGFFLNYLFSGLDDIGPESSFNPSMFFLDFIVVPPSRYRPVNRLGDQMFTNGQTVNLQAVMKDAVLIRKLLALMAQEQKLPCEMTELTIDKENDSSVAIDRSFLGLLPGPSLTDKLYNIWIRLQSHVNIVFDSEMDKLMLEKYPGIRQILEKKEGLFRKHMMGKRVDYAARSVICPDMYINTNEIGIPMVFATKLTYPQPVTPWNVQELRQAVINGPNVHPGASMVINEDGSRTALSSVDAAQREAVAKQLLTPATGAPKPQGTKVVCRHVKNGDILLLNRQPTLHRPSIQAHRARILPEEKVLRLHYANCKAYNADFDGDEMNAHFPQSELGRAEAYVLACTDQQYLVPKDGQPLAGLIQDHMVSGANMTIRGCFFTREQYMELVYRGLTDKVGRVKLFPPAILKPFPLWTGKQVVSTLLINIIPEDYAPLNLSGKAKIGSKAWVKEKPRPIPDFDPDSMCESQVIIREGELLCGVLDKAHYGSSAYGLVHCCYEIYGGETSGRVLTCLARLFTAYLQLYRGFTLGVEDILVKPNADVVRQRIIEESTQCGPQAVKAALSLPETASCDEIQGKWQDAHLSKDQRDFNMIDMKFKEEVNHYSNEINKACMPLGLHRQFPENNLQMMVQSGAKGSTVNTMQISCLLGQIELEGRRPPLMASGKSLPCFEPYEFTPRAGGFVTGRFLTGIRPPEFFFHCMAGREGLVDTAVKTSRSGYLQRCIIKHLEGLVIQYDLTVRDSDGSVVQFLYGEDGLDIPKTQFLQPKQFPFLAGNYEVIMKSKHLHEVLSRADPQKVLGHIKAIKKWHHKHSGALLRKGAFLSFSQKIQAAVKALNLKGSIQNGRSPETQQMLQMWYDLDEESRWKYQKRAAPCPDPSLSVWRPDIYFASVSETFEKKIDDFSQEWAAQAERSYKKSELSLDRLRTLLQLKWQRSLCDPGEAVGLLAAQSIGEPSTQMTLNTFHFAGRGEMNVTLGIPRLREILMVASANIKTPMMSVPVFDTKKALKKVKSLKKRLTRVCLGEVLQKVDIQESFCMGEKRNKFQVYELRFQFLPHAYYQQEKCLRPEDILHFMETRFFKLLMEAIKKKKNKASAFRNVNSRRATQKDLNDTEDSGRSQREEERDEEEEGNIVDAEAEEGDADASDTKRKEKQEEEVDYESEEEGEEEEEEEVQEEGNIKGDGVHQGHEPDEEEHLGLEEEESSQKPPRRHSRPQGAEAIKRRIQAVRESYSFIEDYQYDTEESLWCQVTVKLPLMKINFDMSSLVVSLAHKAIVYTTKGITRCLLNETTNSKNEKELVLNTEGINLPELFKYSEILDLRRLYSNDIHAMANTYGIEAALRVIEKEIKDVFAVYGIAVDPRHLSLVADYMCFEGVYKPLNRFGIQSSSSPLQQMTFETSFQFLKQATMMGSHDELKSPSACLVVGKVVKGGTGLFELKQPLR
UniProt Q6ZQ08: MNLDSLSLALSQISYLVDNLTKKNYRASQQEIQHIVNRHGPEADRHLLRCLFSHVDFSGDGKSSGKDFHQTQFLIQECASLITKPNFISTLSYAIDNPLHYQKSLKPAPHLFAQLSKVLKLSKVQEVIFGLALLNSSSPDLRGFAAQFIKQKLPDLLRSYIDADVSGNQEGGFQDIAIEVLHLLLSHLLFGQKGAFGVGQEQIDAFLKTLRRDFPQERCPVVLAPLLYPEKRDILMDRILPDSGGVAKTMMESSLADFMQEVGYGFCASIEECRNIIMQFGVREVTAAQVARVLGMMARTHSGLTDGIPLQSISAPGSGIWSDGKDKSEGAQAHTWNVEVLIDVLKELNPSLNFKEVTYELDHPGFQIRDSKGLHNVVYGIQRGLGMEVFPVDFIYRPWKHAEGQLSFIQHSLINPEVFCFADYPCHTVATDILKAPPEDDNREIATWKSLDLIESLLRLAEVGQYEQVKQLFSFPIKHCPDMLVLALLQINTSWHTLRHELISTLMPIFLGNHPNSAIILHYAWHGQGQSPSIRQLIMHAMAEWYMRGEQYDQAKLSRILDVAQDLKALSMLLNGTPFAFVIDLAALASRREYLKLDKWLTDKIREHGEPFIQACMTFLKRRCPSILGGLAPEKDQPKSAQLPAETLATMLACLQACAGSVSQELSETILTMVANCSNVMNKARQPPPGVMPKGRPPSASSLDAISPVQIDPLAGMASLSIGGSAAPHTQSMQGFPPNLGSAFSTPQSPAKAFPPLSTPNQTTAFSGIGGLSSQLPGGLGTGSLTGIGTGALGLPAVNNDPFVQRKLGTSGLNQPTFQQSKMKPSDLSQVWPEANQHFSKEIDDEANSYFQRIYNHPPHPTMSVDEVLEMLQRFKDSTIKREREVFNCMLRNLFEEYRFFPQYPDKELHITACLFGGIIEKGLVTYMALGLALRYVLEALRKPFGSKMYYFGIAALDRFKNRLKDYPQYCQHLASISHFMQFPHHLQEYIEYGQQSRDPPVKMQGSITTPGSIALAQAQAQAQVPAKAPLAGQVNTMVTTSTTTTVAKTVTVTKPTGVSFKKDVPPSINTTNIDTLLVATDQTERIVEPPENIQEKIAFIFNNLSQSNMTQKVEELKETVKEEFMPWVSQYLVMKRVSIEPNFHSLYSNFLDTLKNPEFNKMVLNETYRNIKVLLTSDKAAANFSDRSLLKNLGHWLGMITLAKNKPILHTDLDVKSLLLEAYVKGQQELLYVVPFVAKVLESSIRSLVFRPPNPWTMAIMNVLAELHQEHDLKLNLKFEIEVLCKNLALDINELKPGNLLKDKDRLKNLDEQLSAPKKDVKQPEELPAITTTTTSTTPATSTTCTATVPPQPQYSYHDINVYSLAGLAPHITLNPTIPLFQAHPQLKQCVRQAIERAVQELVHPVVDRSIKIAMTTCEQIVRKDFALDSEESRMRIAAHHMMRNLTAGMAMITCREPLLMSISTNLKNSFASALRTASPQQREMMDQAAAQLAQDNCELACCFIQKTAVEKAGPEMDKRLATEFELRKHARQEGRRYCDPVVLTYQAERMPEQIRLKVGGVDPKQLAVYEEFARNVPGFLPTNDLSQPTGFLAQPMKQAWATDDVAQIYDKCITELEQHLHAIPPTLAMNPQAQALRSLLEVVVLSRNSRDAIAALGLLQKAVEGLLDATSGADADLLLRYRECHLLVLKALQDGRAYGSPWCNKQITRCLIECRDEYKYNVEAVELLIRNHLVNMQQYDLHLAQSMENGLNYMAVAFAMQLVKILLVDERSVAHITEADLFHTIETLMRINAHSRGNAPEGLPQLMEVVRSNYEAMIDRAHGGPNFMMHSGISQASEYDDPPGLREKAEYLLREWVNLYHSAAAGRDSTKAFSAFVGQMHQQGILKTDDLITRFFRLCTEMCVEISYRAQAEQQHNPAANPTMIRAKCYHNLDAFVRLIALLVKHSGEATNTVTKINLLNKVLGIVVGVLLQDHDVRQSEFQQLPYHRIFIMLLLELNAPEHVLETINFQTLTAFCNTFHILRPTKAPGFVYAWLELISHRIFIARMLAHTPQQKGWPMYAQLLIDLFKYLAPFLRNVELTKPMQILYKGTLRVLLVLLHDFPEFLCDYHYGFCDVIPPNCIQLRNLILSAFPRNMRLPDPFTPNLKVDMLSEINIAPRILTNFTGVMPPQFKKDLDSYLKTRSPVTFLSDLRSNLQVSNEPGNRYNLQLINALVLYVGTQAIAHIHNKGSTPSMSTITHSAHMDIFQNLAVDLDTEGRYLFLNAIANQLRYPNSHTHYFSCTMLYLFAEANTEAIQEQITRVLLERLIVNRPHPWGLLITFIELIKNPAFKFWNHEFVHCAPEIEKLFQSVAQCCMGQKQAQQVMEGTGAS
UniProt P13864: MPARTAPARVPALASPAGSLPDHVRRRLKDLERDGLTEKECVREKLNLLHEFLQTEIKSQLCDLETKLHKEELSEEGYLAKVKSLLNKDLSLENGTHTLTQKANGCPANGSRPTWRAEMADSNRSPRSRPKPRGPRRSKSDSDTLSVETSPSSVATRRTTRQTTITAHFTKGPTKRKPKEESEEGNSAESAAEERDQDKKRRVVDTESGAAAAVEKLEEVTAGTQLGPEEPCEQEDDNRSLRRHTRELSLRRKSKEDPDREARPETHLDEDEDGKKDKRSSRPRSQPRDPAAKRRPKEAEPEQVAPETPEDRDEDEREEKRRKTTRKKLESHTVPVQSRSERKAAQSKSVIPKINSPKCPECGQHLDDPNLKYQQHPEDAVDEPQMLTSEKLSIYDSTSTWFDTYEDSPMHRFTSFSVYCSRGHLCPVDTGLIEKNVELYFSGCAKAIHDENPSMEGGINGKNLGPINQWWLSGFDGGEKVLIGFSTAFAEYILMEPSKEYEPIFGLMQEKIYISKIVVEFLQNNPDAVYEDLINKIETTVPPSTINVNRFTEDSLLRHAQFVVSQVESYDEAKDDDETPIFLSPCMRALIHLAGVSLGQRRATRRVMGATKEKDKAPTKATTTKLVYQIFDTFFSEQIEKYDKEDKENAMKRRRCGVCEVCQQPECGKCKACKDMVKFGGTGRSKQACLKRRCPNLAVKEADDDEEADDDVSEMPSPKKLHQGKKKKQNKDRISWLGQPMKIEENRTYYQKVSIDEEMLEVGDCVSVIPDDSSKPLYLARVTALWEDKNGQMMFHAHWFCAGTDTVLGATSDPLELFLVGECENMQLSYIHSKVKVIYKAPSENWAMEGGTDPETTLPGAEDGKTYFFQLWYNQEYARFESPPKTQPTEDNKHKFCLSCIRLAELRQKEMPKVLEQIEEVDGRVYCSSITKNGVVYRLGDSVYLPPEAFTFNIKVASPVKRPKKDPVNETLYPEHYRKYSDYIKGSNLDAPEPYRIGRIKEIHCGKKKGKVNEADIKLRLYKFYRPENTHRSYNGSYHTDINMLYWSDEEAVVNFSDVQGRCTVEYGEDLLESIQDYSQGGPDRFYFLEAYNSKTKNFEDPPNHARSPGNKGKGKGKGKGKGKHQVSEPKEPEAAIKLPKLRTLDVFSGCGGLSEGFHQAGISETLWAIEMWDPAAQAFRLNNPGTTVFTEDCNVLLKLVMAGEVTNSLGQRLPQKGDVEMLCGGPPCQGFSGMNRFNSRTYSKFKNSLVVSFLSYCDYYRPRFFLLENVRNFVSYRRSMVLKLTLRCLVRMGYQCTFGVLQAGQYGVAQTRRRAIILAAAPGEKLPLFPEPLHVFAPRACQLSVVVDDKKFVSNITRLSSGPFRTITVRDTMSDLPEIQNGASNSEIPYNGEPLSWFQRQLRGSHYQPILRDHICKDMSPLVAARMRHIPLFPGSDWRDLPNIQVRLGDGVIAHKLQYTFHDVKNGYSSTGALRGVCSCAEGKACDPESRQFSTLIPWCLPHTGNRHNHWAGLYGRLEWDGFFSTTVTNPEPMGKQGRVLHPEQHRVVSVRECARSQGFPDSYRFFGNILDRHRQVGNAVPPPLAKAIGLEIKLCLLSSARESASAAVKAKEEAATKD
UniProt Q9CXY6: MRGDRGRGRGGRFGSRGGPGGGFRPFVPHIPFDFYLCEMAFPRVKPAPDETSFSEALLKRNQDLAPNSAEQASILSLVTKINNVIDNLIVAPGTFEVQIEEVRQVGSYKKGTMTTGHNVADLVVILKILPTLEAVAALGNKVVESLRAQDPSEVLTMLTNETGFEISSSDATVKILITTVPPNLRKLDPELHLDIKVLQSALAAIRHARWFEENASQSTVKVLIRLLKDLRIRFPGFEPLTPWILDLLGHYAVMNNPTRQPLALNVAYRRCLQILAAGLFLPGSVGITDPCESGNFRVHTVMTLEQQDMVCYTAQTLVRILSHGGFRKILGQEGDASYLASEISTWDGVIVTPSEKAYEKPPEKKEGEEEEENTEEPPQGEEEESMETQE

B1: Cleavage and polyadenylation specificity factor subunit 1 (protein, UniProt Q9EPU4 1-1441)
chain: MYAVYKQAHPPTGLEFTMYCNFFNNSERNLVVAGTSQLYVYRLNRDAEALTKNDGSTEGKAHREKLELVASFSFFGNVMSMASVQLAGAKRDALLLSFKDAKLSVVEYDPGTHDLKTLSLHYFEEPELRDGFVQNVHTPRVRVDPDGRCAAMLIYGTRLVVLPFRRESLAEEHEGLMGEGQRSSFLPSYIIDVRALDEKLLNIIDLQFLHGYYEPTLLILFEPNQTWPGRVAVRQDTCSIVAISLNITQKVHPVIWSLTSLPFDCTQALAVPKPIGGVVIFAVNSLLYLNQSVPPYGVALNSLTTGTTAFPLRTQEGVRITLDCAQAAFISYDKMVISLKGGEIYVLTLITDGMRSVRAFHFDKAAASVLTTSMVTMEPGYLFLGSRLGNSLLLKYTEKLQEPPASSVREAADKEEPPSKKKRVEPAVGWTGGKTVPQDEVDEIEVYGSEAQSGTQLATYSFEVCDSMLNIGPCANAAVGEPAFLSEEFQNSPEPDLEIVVCSGYGKNGALSVLQKSIRPQVVTTFELPGCYDMWTVIAPVRKEEEETPKAESTEQEPSAPKAEEDGRRHGFLILSREDSTMILQTGQEIMELDTSGFATQGPTVFAGNIGDNRYIVQVSPLGIRLLEGVNQLHFIPVDLGAPIVQCAVADPYVVIMSAEGHVTMFLLKSDSYGGRHHRLALHKPPLHHQSKVIALCLYRDVSGMFTTESRLGGARDELGGRSGSEAEGLGSETSPTVDDEEEMLYGDSSALFSPSKEEARRSSQPPADRDPAPFKADPTHWCLLVRENGTMEIYQLPDWRLVFLVKNFPVGQRVLVDSSFGQPTTQGEVRKEEATRQGELPLVKEVLLVALGSRQSRPYLLVHVDQELLIYEAFPHDSQLGQGNLKVRFKKVPHNINFREKKPKPSKKKAEGCSTEEGSGGRGRVARFRYFEDIYGYSGVFICGPSPHWLLVTGRGALRLHPMGIDGPIDSFAPFHNVNCPRGFLYFNRQGELRISVLPAYLSYDAPWPVRKIPLRCTAHYVAYHVESKVYAVATSTNTPCTRIPRMTGEEKEFEAIERDDRYIHPQQEAFSIQLISPVSWEAIPNARIELEEWEHVTCMKTVSLRSEETVSGLKGYVAAGTCLMQGEEVTCRGRILIMDVIEVVPEPGQPLTKNKFKVLYEKEQKGPVTALCHCNGHLVSAIGQKIFLWSLRASELTGMAFIDTQLYIHQMISVKNFILAADVMKSISLLRYQEESKTLSLVSRDAKPLEVYSVDFMVDNAQLGFLVSDRDRNLMVYMYLPEAKESFGGMRLLRRADFHVGAHVNTFWRTPCRGAAEGPSKKSVVWENKHITWFATLDGGIGLLLPMQEKTYRRLLMLQNALTTMLPHHAGLNPRAFRMLHVDRRILQNAVRNVLDGELLNRYLYLSTMERSELAKKIGTTPDIILDDLLETDRVTAHF
B2: Microtubule-associated protein 1S (protein, UniProt Q8C052 1-973)
chain: MAAVMAAPEAVEAPSSLLLLVVGGECGCPGLLAYVMEELERGVRSWEDVDPAVCSLDEQLKAFVSRHSATFSSIVKGQRSLHHRGETLETLVLLNPSDKSLCDELRNLLMDPAPHKLLVLAGPCLEETGELLLQTGGFSAHHFLQVLGDKEVQDALASAPAAPALTVSCPTFGDWALLGPVPGLQLRLNPPAQLPASEGLRAFLEYVAESLEPPSPFELLEPPAAGGFLRLARPCCYVFPGGLGDAAFFAVNGFTVLVNGGSNPKSSFWKLVRHLDRVDAVLVTHAGADSLPGLNSLLRRKLAEREAAAGPQGQHEERLRRLLSPALGVVFLNAREAASRLRGGEDEAVCARSLLRSLGIAPLPLQRGPQPSCPTVLFEKLGVGRLELFVLHPPPGDPAAPACALLVWQPAAPGDKVVRVLFPGRTPPARLLDGLQRLQHLPCLRRPVVTTHDLEAPSRANSQDSLASRDSARKEPVRGTVGSIANRSTVRREPALATRDQKKDTRSGPTQPTARDTRRSGPGVVNTKPRVSQNGPRAPVLAAPLTAPVAECPGEAENILESERPPAPSPTLSPAQSPPPTAPGNSPERLSLSPLRPEPAPDASPSATTPTLTTPSLPAELGSPHSTEVDESLSVSFEQVLPAGDPGLSLPLRLARRSTSPHDVDLCLVSPCEFSHRKPPPPASPGSSDSSARSQERPPETPPTSVSESLPTLSDSDPVPVADSDDDAGSESAARDPPPTPRVPPPLPDVPGICMVDPEALPPRARQPLNTTNPSRSRKAPARPSSASATPRAATVAAKTKGPAGDRNRPLSARSEPADRPGRVPLTRKPSVPKTVPKMASATRLSSGPSGRPAPLAAGSPVYLDLAYLPGGGAGHLDQNFFLRVRALCYVISGQGQRQEEGLRAVLDALLAGKRQWDLDLQVTLIPTFDSAVMHRWYEETHAQHQALGIRVLGSGSLVSMQDEAFPACKVEF
B3: Protein strawberry notch homolog 2 (protein, UniProt Q7TNB8 1-1349)
chain: MLAVEPTMDGDFPPHELPPPGGGIQLQNRLLHCPWWGSFSPSLYPTFSSENQQFVGSTPFLGGQSCPETSYPTTATVPSFFSKSSDFPQDPSCLEDLSNASVFSSSVDSLSDIPDTPDFLQADSLNEVPTIWDVSTTSTTHDKLFIPSGPFSAPEDPVTSLSSTPLLISYQSHSQPEEEEGEEEEETEELGHAETYADYVPSKSKIGKQHPDRVVETSTLSSVPPPDITYTLALPTSDNSTLSALQLEAITYACQQHEVLLPSGQRAGFLIGDGAGVGKGRTVAGIIVENYLRGRKKALWFSASNDLKYDAERDLRDIEAPGIAVHALSKIKYGDNTTSEGVLFATYSALIGESQAGGQHRTRLRQILQWCGEGFDGVIVFDECHKAKNASSTKMGKAVLDLQSKLPQARVVYASATGASEPRNMIYMSRLGIWGEGTPFRTFEEFLHAIEKRGVGAMEIVAMDMKVSGMYIARQLSFSGVTFRIEEIPLSPAFQQVYNRAARLWAEALSVFQQAADWIGLESRKSLWGQFWSAHQRFFKYLCIAAKVHRLVELAQQELSRDKCVVIGLQSTGEARTREVLDENEGRLDCFVSAAEGVFLSLIQKHFPSTRRRRDRGGGKRKRRPRGRGPKASRLSLEAAGVIRISDGSSTESDAGLDSDFNSSPESLVDDDVVIVDAPTHPTDDRGSLYPLQRDLQGPGVVERVERLKQGLLAKVRALGRELPVNTLDQLIHQLGGPECVAEMTGRKGRVVSRPDGTVVFESRAEQGLSIDHVNLREKQRFMSGEKLVAIISEASSSGVSLQADRRVQNQRRRVHMTLELPWSADRAIQQFGRTHRSNQVSAPEYVFLISELAGERRFASIVAKRLESLGALTHGDRRATESRDLSKYNFENKYGARALSRVLATIMGQTDNRVPLPQGYPGGDTAFFRDMKQGLLSVGIGSRESRSGCLDVEKDCSITKFLNRILGLEVHKQNALFQYFSDTFDHLIEIDKKEGRYDMGILDLAPGINEIHEESQQVFLAPGHPQDGQVVFYKQISVDRGMKWEEALTRSLELKGPYDGFYLSYKVRGSKMSCLLAEQNRGEYFTVYKPNIGRQSQLETLDSLCRKFHRVTVEEAREPWESSYALSLEHCSHTTWNQRCRLTQEGKCCAQGLRLRHHYMLCGALLRVWGRIAAVMADVSSSSYLQIVRLKTKDKKKQVGIKIPEGCVHRVLQELQLMDAEVKRRSTHGLAARPPTPRAITLPCGPGEVLDLTYSPPAEAFPTPPRFAFPSLPPPDPSSLMLGARDPATNPVELAHQSCDINFREVLEDMLRSLRAGPTETPAPLVGVGGGGTERQSVIHFSPPFPNS
B4: Constitutive coactivator of PPAR-gamma-like protein 1 (protein, UniProt Q6A0A9 1-1112)
chain: MGVQGFQDYIEKHCPSAVVPVELQKLARGSLVGGGRQRPPQTPLRLLVDADNCLHRLYGGFYTDWVSGGQWNHMLGYLAALAKACFGGNIELFVFFNGALEKARLHEWVKRQGNERQTAQQIVSHVQNKGTPPPKVWFLPPVCMAHCIRLALIRFHVKVAQSIEDHHQEVIGFCRENGFHGLVAYDSDYALCNIPYYFSAHALKLSRNGKSLTTSQYLMHEVAKQLDLNPNRFPIFAALLGNHILPDEDLASFHWSLLGPEHPLASLKVRAHQLVLPPCDVVIKAVADYVRNIHDTSDLDAIAKDVFQHSQSRTDDKVIRFKRAVGYYSATSKPMPFHPPHYLARPNPFGMPGMVPPYVPPQMLNIPQTSLQAKPAVPQVPSPGGTPGQAPYPYSLSEPALTLDTSGKNLTEQNSYSNIPHEGKHTPLYERSSPINLAQSGSPNHVDSAYFPGSSTSSSSDNDEGGGGATNHISGNKIGWEKTGSHAEPLARGDPGDQVKVEGSSTASSGSQLAEGKGSHMGTVQPIPCLLSMPTRNHMDITTPPLPPVAPEVLRVAEHRHKKGLMYPYIFHILTKGEIKIAVSIEDEANKDLPPAALLYRPVRQYVYGVLFSLAESRKKTERLAFRKNRLPPEFSPLIIKEWAAYKGKSPQTPELVEALAFREWTCPNLKRLWLGKAVEDKNRRMRAFLACMRSDTPAMLNPANVPTHLMVLCCVLRYMVQWPGARILRRQELDAFLAQALSPKLYEPDQLQELKIDNLDPRGIQLSALFMSGVDMALFANDACGQPIPWEHCCPWMYFDGKLFQSKLLKASREKTPLIDLCDGQAEQAAKVEKMRQSILEGLSFSRQNHPLPFPPPPALPFYPASVYPRHFGPVPPSQGRGRGFAGVCGFGGHYGETVATGPYRAFRVTAASGHCGAFSGSDSSRTSKSQGGVQPIPSQGGKLEIAGTVVGHWAGSRRGRGGRGPFPLQVVSVGGPARGRPRGVISTPVIRTFGRGGRYYGRGYKSQGAIQGRPPYAASAEEVAKELKSKSGESKSSAVSLAENGVMAEEKPVPQLNGSTGDPRVPSHSESALNNDSKPCNTNPHLNALSTDSACRREAALEAAVLNKEE

Molecular target: FLAG-HA-BACH2-IDR (mouse) (UniProt P97303)
Test: affinity purification with mass spectrometry; ReCLIP: in-cell cross-linking (DSP, DTME) of BAL17 cells stably expressing FLAG-HA-BACH2-IDR, RIPA lysate, FLAG-M2 agarose, FLAG peptide elution, cross-links reversed with DTT, LC-MS/MS; compared with mock-infected cells

Question: With “DNA-directed RNA polymerase I subunit RPA1 (from UniProt O35134 1-1717)” as the molecule, how does the binding read?
Answer: binds

Question: Which binding does the source give for “TATA-binding protein-associated factor 172 (from UniProt E9QAE3 1-1848)” here?
Answer: binds

Question: For “AT-rich interactive domain-containing protein 1A (from UniProt A2BH40 1-2283)”, which binding is on record?
Answer: binds

Question: Which binding does the source give for “Transcription activator BRG1 (from UniProt Q3TKT4 1-1613)” here?
Answer: binds

Question: Which binding does the source give for “CCR4-NOT transcription complex subunit 1 (from UniProt Q6ZQ08 1-2375)” here?
Answer: binds

Question: With “DNA (cytosine-5)-methyltransferase 1 (from UniProt P13864 1-1620) (enzyme)” as the molecule, how does the binding read?
Answer: binds

Question: For “Interleukin enhancer-binding factor 2 (from UniProt Q9CXY6 1-390)”, which binding is on record?
Answer: binds

Question: For “SWI/SNF-related matrix-associated actin-dependent regulator of chromatin subfamily A member 5 (from UniProt Q91ZW3 1-1051)”, which binding is on record?
Answer: binds

Question: With B1 as the molecule, how does the binding read?
Answer: binds

Question: How did the binding turn out when B2 was run?
Answer: binds

Question: For B3, which binding is on record?
Answer: binds

Question: How did the binding turn out when B4 was run?
Answer: binds
